Test results reported in patent publication US20230147364A1, “PROPHYLACTIC OR THERAPEUTIC AGENT FOR RNA VIRUS-RELATED DISEASES” (priority 2020, published 2023).

What was measured:
Assay in all cases: microbe, parasite or virus in culture
Assay type in all cases: cell-based
[1] = test system: SARS-CoV-2; conditions: Severe acute respiratory syndrome coronavirus 2, Vero C1008, read-out: IC50, infection rate of SARS-CoV-2
[2] = test system: VSVΔG-SARS2-S (pseudo-type VSV with SARS-CoV-2 spike protein); conditions: Vesicular stomatitis virus, Vero C1008, 20 h, read-out: IC50, VSVΔG-SARS2-S infection
[3] = test system: pseudo-typed VSV having a SARS-CoV spike protein (SARS-CoV-S); conditions: Vesicular stomatitis virus, Vero C1008, 20 h, read-out: IC50, infection with pseudo-typed VSV having SARS-CoV spike protein

SMILES: CCN(CC)CCOc1ccc(/C(=C(/Cl)c2ccccc2)c2ccccc2)cc1 [Clomifene, clomifene]
- IC50 [1]: 6.7 µM
- IC50 [2]: 4.4 µM
- IC50 [3]: 5.8 µM
